These are yes or no findings as the source states them, for the method shown. Some binding calls cover weakened binding; strength is not graded here. For part of these data: Where a sequence is shown, tags or fusion partners need not be part of it.
Legend:
[1] = target: T1, GST-D1 (GST fusion of the LPXTGp5 D1 domain) (Staphylococcus aureus) (UniProt Q2FG07); test: ELISA, D1 domain protein coated, haemoglobin added, anti-haemoglobin mAb detection
T1 sequence: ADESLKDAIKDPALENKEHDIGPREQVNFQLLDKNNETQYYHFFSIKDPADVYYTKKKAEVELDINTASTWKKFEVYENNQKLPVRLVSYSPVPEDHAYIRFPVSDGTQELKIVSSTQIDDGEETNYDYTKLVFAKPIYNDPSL

Amino acid sequences for entries named in this document (tags omitted). A change or cut given only in a name is not applied to a line headed by its entry.
UniProt P69905: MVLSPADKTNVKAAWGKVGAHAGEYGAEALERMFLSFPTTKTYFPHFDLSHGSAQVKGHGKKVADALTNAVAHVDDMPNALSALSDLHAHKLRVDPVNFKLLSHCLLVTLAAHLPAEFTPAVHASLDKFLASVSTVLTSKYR
UniProt P00738: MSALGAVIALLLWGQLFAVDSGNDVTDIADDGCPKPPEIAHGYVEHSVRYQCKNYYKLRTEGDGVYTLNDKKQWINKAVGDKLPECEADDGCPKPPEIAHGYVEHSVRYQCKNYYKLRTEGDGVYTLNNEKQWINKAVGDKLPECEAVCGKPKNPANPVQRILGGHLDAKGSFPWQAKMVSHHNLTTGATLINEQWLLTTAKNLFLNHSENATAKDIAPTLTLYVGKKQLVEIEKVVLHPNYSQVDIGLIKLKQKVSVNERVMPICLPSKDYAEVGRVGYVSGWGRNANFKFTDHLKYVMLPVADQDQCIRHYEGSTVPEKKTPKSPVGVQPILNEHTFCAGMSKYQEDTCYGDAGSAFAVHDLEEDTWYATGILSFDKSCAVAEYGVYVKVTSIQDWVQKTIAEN

[2] = target: T2, GST-D2 (GST fusion of the LPXTGp5 D2 domain) (Staphylococcus aureus) (UniProt Q2FG07); test: ELISA, D2 domain protein coated, haemoglobin added, anti-haemoglobin mAb detection
T2 sequence: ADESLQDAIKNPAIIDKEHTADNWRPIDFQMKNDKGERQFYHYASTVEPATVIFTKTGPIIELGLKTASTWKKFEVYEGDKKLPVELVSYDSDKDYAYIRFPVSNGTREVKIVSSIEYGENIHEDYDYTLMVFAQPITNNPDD

[3] = target: recombinant LPXTGp5 (StrepII-tagged, full-length) (Staphylococcus aureus COL) (UniProt Q2FG07); test: ELISA, recombinant HarA coated, anti-haptoglobin mAb detection
[4] = target: recombinant LPXTGp5 (StrepII-tagged, full-length) (Staphylococcus aureus COL) (UniProt Q2FG07); test: ELISA, rHarA coated, ligands added in increasing amounts, anti-haptoglobin mAb detection
[5] = target: T1, GST-D1 (GST fusion of the LPXTGp5 D1 domain) (Staphylococcus aureus); test: ELISA, D1 domain protein coated, ligands added in increasing amounts, anti-haptoglobin or anti-haemoglobin mAb; same result in the reverse format (data not shown)
[6] = target: T2, GST-D2 (GST fusion of the LPXTGp5 D2 domain) (Staphylococcus aureus); test: ELISA, D2 domain protein coated, ligands added in increasing amounts, anti-haptoglobin or anti-haemoglobin mAb; same result in the reverse format (data not shown)

Measured: binding

haemoglobin (Sigma) (from UniProt P69905 2-142; P68871 2-147) (ligand)
binds: [1] | [2]

haptoglobin-haemoglobin complexes (from UniProt P00738 19-406; P00738 19-406; P69905 2-142; P68871 2-147)
binds: [3] | [4] | [5] | [6]

Reference: patent US20050220788A1
